In PubChem BioAssay AID445 (National Center for Advancing Translational Sciences (NCATS), 2006):
Some of the results follow. The main result of the screen is listed elsewhere. These columns were measured beside it and carry no call. Compounds called inactive in the main read-out are mostly missing here. Potencies come from curve fits of mixed quality, noted in brackets.

Assay: IkB Signaling
Settings: ABC-DLBCL IkBa-CBG/CBR dual luciferase ratio (green luciferase fused to IkBa over red control in OCI-Ly3 lymphoma cells), 4 h; measured here: control luc red channel unless noted
Procedure, shortened: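 In this assay, an IκBα–CBG68 fusion accumulates when IKK-driven degradation is blocked; native CBR normalizes for cell number. OCI-Ly3 cells were treated 4 h with compound and doxycycline, then green and red light read after Chroma-Glo addition.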

Row | Structure (SMILES) | AC50
1 | CCCc1nn2c(=O)cc(COC(=O)c3ccc(NC(=O)COc4ccccc4)cc3)nc2s1 | 10 µM [falling, partial curve, poor fit]
2 | CCN(CC)C(=O)c1sc2c(c1C)c(=O)n(CCc1ccccc1)c(=O)n2Cc1cc(C)ccc1C | 12.6 µM [falling, partial curve, poor fit]
3 | COc1cccc(N2CCN(C(=O)c3cc4c(s3)-c3ccccc3OC4)CC2)c1 | 0.2 µM [falling, full curve, poor fit]
4 | O=C(CCSc1ccc(F)cc1)Nc1ccc(-n2cnnn2)cc1 | 25.1 µM [falling, partial curve, poor fit]
5 | O=C(NCCc1ccc(Cl)cc1)c1ccc(CS(=O)(=O)c2ccc(Cl)cc2)o1 | 15.8 µM [falling, partial curve]
6 | CC(C)(C)c1ccc(Cn2nnc3c(=O)[nH]c(C4CCN(C(=O)Cc5cccs5)CC4)nc32)cc1 | 39.8 µM [falling, single point]
7 | Cc1ccc2cc(CN(Cc3ccccc3)Cc3nnnn3C3CCCC3)c(=O)[nH]c2c1 | 3.16 µM [falling, partial curve]
8 | COc1ccc(NC(=O)Cn2cc(S(=O)(=O)c3ccccc3)c(=O)c3cc4c(cc32)OCO4)cc1 | 39.8 µM [falling, single point]
9 | CCCC(=O)OCc1cnc(C)c2oc(=O)c(C(=O)Nc3cccc(C(F)(F)F)c3)cc12 | 25.1 µM [falling, partial curve]
10 | COc1ccc(N(Cc2cccs2)C(=O)c2ccc(OC)c(Cl)c2)cc1 | 5.01 µM [falling, partial curve]
11 | Cc1cccc(N2CCN(C(=O)C3CCN(S(=O)(=O)c4c(C)noc4C)CC3)CC2C)c1 (stereo unspecified) | 39.8 µM [falling, partial curve]
12 | CCCS(=O)(=O)c1c(S(=O)(=O)CCC)c2cc(C(C)(C)C)ccn2c1C(=O)c1ccccc1 | 20 µM [falling, single point]
13 | CC(=O)Nc1ccc(NC(=O)c2ccccc2F)cc1 | 12.6 µM [falling, partial curve]
14 | Cc1ccccc1C(=O)Nc1ccc2nc(N3CCCCC3)cc(C)c2c1 | 1.26 µM [rising, partial curve]
15 | COC(=O)c1ccc(NC(=O)CC2C(=O)N(c3ccccc3)C(=O)N2Cc2ccc(F)cc2)cc1 (stereo unspecified) | 25.1 µM [falling, single point]
16 | CC(C)c1noc(-c2ccccc2OCC(=O)Nc2cccc([N+](=O)[O-])c2)n1 | 12.6 µM [falling, partial curve]
17 | CC(C)Sc1ncc(Cl)c(C(=O)Nc2ccc(S(=O)(=O)N3CCCCC3)cc2)n1 | 39.8 µM [falling, single point]
18 | COc1cc(C2CC(=O)Oc3c2c(=O)[nH]c2ccccc32)cc(OC)c1OC (stereo unspecified) | 25.1 µM [falling, partial curve, poor fit]
19 | Cc1ccc(-c2cc3nc(-c4ccccc4)cc(C(F)(F)F)n3n2)cc1 | 20 µM [falling, partial curve]
20 | Cc1ccc(NC(=O)C2CCN(S(=O)(=O)c3cccc4nonc34)CC2)cc1C | 1 µM [falling, full curve, poor fit]
21 | CCNc1ncc2nc(-c3cn(C)c4ccccc34)c(=O)n(-c3ccccc3)c2n1 | 0.794 µM [falling, partial curve]

Fetched by compound from above (four):
Row | Structure (SMILES) | AC50
2 | CCN(CC)C(=O)c1sc2c(c1C)c(=O)n(CCc1ccccc1)c(=O)n2Cc1cc(C)ccc1C | 12.6 µM [falling, partial curve, poor fit]
15 | COC(=O)c1ccc(NC(=O)CC2C(=O)N(c3ccccc3)C(=O)N2Cc2ccc(F)cc2)cc1 (stereo unspecified) | 25.1 µM [falling, single point]
1 | CCCc1nn2c(=O)cc(COC(=O)c3ccc(NC(=O)COc4ccccc4)cc3)nc2s1 | 10 µM [falling, partial curve, poor fit]
18 | COc1cc(C2CC(=O)Oc3c2c(=O)[nH]c2ccccc32)cc(OC)c1OC (stereo unspecified) | 25.1 µM [falling, partial curve, poor fit]

Remaining list, next part:

Row | Structure (SMILES) | AC50
22 | Cc1c(NC(=O)c2ccc3c(c2)OCO3)cccc1-c1nc2ncccc2o1 | 7.94 µM [falling, partial curve]
23 | O=C(Oc1ccccc1F)c1nc(SCc2ccc(F)cc2)ncc1Cl | 7.94 µM [falling, partial curve, poor fit]
24 | Cc1ccc(CN(C(=O)COc2cc(C)c(Cl)c(C)c2)c2ccccn2)o1 | 25.1 µM [falling, single point]
25 | CC(=O)N1CCc2cc(Br)cc(S(=O)(=O)CCC(=O)N3CCN(c4ccccc4Cl)CC3)c21 | 25.1 µM [falling, single point]
26 | COc1ccc(-c2nc3scc(CCNS(=O)(=O)c4ccc5c(c4)OCCO5)n3n2)cc1 | 7.94 µM [falling, partial curve]
27 | COc1ccc(C(=O)OCCNC(=O)c2c(Cl)nc3ccccn23)cc1 | 31.6 µM [falling, single point]
28 | Cc1cccc(C)c1NC(=O)CS(=O)(=O)c1nc(-c2ccc(Cl)cc2)cn1-c1ccccc1 | 6.31 µM [falling, partial curve]
29 | CC(=O)N1CCc2cc(S(=O)(=O)NC(CC(C)C)C(=O)Nc3cc(C)cc(C)c3)ccc21 (stereo unspecified) | 12.6 µM [falling, single point]
30 | Cc1cccn2c(=O)c3cc(C#N)c(=O)n(-c4nnc(SCc5ccc(Cl)cc5)s4)c3nc12 | 2.51 µM [falling, full curve, poor fit]
31 | Cc1ccc(C)c(Cn2c(=O)c3c(nc4n3CCN4c3ccccc3)n(C)c2=O)c1 | 15.8 µM [falling, partial curve]
32 | CC(=O)N1CCc2c(sc3c2c(=O)n(CCc2ccccc2)c(=O)n3Cc2ccccc2C)C1 | 39.8 µM [falling, single point]
33 | COc1ccc(NC(=O)CSc2nc(-c3cccc(C)c3)[nH]c2-c2ccccc2)cc1OC | 10 µM [falling, partial curve]
34 | COc1ccc(N2C(=O)CSC23C(=O)N(CC(=O)NCCc2ccccc2)c2ccccc23)cc1 (stereo unspecified) | 39.8 µM [falling, single point]
35 | O=C(CSc1nc(=O)[nH]c2c1CCCC2)NCc1ccccc1 | 5.01 µM [rising, partial curve]
36 | COc1cc(N=c2ssnc2Cl)cc(OC)c1OC | 31.6 µM [falling, partial curve]
37 | Cc1ccc(S(=O)(=O)c2c(O)cc(C)c(NS(=O)(=O)c3ccc(Cl)cc3)c2C)cc1 | 12.6 µM [falling, partial curve]
38 | Cc1cc(C)c2sc(N3CCN(C(=O)c4ccc(N(C)C)cc4)CC3)nc2c1 | 15.8 µM [falling, partial curve]
39 | CC(C)Cn1c(N)c(C(=O)NCc2cccs2)c2nc3ccccc3nc21 | 7.94 µM [falling, partial curve]
40 | COc1ccc(-c2cn3c(C)c(C(=O)Nc4cccc(NC(C)=O)c4)sc3n2)cc1 | 5.01 µM [falling, partial curve]
41 | COc1cc(C)nc(NCc2ccccc2)n1 | 12.6 µM [rising, partial curve]
42 | COc1cccc(Cc2nc3ccccc3nc2SCC(=O)Nc2cc(OC)ccc2OC)c1 | 3.16 µM [falling, full curve]

Row | Structure (SMILES) | AC50
43 | COc1ccc(-c2noc(-c3ccccc3F)n2)cc1 | 12.6 µM [falling, partial curve]
44 | CCOCCn1ccc2c(OCC(=O)Nc3cccc(F)c3)cccc2c1=O | 20 µM [falling, single point]
45 | CCOc1cc(-c2ccc(OC(=O)c3ccccc3)c(OC)c2)cc(=O)c2c(C)oc(C)c12 | 20 µM [falling, single point]
46 | Cc1ccc(C2c3c(oc4ccccc4c3=O)C(=O)N2c2nnc(C)s2)cc1 (stereo unspecified) | 39.8 µM [falling, partial curve, poor fit]
47 | COc1ccc(C)cc1Nc1ncnc2c1c(-c1ccccc1)cn2-c1ccc(C)cc1 | 12.6 µM [falling, partial curve]
48 | O=c1c2sc3ccccc3c2n(Cc2ccccc2)c(=O)n1CCc1ccccc1 | 12.6 µM [falling, partial curve]
49 | COc1ccc(S(=O)(=O)N2CCC(C(=O)Nc3cc(C(F)(F)F)ccc3Cl)CC2)cc1 | 7.94 µM [falling, full curve, poor fit]
50 | Cc1cc(C(=O)CSc2nnnn2-c2ccc(O)cc2)c(C)n1Cc1ccc2c(c1)OCO2 | 3.16 µM [falling, full curve]
51 | CCc1nc2scc(-c3ccccc3)c2c(=O)n1N | 0.794 µM [rising, full curve, poor fit]
52 | COc1ccc(OC)c2sc(N3CCN(C(=O)C4COc5ccccc5O4)CC3)nc12 (stereo unspecified) | 39.8 µM [falling, single point]
53 | CC(C)c1ccc(NC(=O)CCS(=O)(=O)c2ccc3c(c2)CC(=O)N3C)cc1 | 15.8 µM [falling, partial curve]
54 | CCCCCn1cc2c(c1-c1ccccc1Br)c(=O)n(C)c(=O)n2C | 15.8 µM [falling, partial curve]
55 | COc1ccc(C(c2nnnn2CC2CCCO2)N2CCN(c3cccc(C)c3C)CC2)cc1 (stereo unspecified) | 12.6 µM [falling, partial curve]
56 | Cc1ccc2occ(CC(=O)Nc3ccc(S(=O)(=O)N4CCC(C)CC4)cc3)c2c1 | 12.6 µM [falling, partial curve]
57 | CCOc1ccc2ncc3c(-c4cccc(OC)c4)nn(-c4ccccc4)c3c2c1 | 7.94 µM [falling, full curve]
58 | COc1ccccc1CNC(=O)CSc1nnc(C)c2c(C)n(-c3ccccc3)nc12 | 10 µM [falling, partial curve]
59 | Cc1ccccc1OCCCCn1nnc2sc3c(c2c1=O)CCC(C)C3 (stereo unspecified) | 0.398 µM [falling, partial curve]
60 | Cc1nc2sccn2c(=O)c1S(=O)(=O)Nc1cc(C(F)(F)F)ccc1Cl | 25.1 µM [falling, single point]
61 | COc1ccccc1NC=C1C(=O)OC(C)(C)OC1=O | 31.6 µM [rising, partial curve]
